This data set is described as follows: general procedure: Boc solid-phase peptide synthesis; MBHA resin, capacity 0.3-0.4 mequiv/g. The note with it: for final purity (method not given): CZE; for final HPLC purity: analytical RP-HPLC and capillary zone electrophoresis (CZE).
The mark [1] stands for this setting: conjugation step, one disulfide bridge.
The mark [2] stands for this setting: whole synthesis, one disulfide bridge.
[3] abbreviates: conjugation step, one disulfide bridge, sequence written open.
Setting [4] is: whole synthesis, one disulfide bridge, sequence written open.

Bridge positions count the residues as written; N and C are the ends. Square brackets hold non-standard residues; d marks the D form. * marks the point of attachment. ξ: configuration not given here. Phe(4-NO2) = N[C@@H](Cc1ccc([N+](=O)[O-])cc1)C(=O)O; dPhe(4-NHCONH2) = NC(=O)Nc1ccc(C[C@@H](N)C(=O)O)cc1; ξDihydroorotoyl = O=C1CC(C(=O)*)NC(=O)N1; Phe(4-NH2) = Nc1ccc(C[C@H](N)C(=O)O)cc1; 2Nal = N[C@@H](Cc1ccc2ccccc2c1)C(=O)O

In the case of “DOTA-pNO2Phe-DCys-Tyr-DTrp-Lys-Thr-Cys-DTyr-NH2”, under setting [1], the “final purity (method not given)” value was found to be 97% and the “final HPLC purity” value is listed as 95%.

For “(cyclo 3-14) DOTA-pNO2-Phe-D-Cys-ITyr-D-Trp-Lys-Thr-Cys-D-Tyr-NH2”, for the setting “conjugation step”, the “final purity (method not given)” value is “about 98% pure”.

Take “H2N—Cpa-DCys-Tyr-DTrp-Lys-Thr-Cys-2Nal-NH2”: under setting [2], the “final purity (method not given)” value is listed as 99% and the “final HPLC purity” value is listed as 99%.

In the case of “H2N—Cpa-DCys-Aph(Cbm)-DTrp-Lys-Thr-Cys-2Nal-NH2”, under setting [2], the “final purity (method not given)” value was 97% and the “final HPLC purity” value is on record as 99%.

In the case of “H2N—Cpa-DCys-L-Agl(NMe,benzoyl)-DTrp-Lys-Thr-Cys-2Nal-NH2”, under setting [2], the “final purity (method not given)” value is on record as 98% and the “final HPLC purity” value was found to be 95%.

For the substance “H-[Phe(4-NO2)][dC][Phe(4-NH2)](ξDihydroorotoyl)[dPhe(4-NHCONH2)]KTC[2Nal]-NH2 (disulfide 2-7; SMILES C[C@@H](O)[C@@H]1NC(=O)[C@H](CCCCN)NC(=O)[C@@H](Cc2ccc(NC(N)=O)cc2)NC(=O)[C@H](Cc2ccc(NC(=O)C3CC(=O)NC(=O)N3)cc2)NC(=O)[C@H](NC(=O)[C@@H](N)Cc2ccc([N+](=O)[O-])cc2)CSSC[C@@H](C(=O)N[C@@H](Cc2ccc3ccccc3c2)C(N)=O)NC1=O)”, under “whole synthesis”, the “final purity (method not given)” value was 99% and the “final HPLC purity” value was determined as 99%.

Take “(cyclo 3-14) DOTA-Cpa-D-Cys-4Aph(Hor)-D-Aph(Cbm)-Lys-Thr-Cys-2Nal-NH2”: the “final purity (method not given)” value (conjugation step) is “about 98% pure”.

Take “DOTA-Peg-Cpa-DCys-Aph(Cbm)-DTrp-Lys-Thr-Cys-2Nal-NH2”: under setting [3], the “final purity (method not given)” value amounted to 99% and the “final HPLC purity” value was 99%.

“H2N—Cpa-DCys-Aph(Cbm)-DTrp-Lys-Thr-Cys-Cha-NH2”: under setting [2], the “final purity (method not given)” value is on record as 96% and the “final HPLC purity” value is listed as 99%.

Take “H2N—Cpa-DCys-Aph(CONH—OCH3)-DTrp-Lys-Thr-Cys-2Nal-NH2”: under setting [2], the “final purity (method not given)” value came to 99% and the “final HPLC purity” value is 99%.

Turning to “H2N—Cpa-DCys-D-Agl(NMe,benzoyl)-DTrp-Lys-Thr-Cys-2Nal-NH2”, under setting [2], the “final purity (method not given)” value came to 99% and the “final HPLC purity” value was 98%.

Turning to “H2N—Cpa-DCys-Tyr-DTrp-NMeLys-Thr-Cys-2Nal-NH2”, under setting [2], the “final purity (method not given)” value is listed as 99% and the “final HPLC purity” value is listed as 97%.

As to “H2N—Cpa-DCys-Aph(CONH—OH)-DTrp-Lys-Thr-Cys-2Nal-NH2”, under setting [2], the “final purity (method not given)” value came to 99% and the “final HPLC purity” value is recorded as 99%.

Consider “H2N—Cpa-DCys-Leu-DTrp-Lys-Thr-Cys-2Nal-NH2”, for which, under setting [2], the “final purity (method not given)” value came to 99% and the “final HPLC purity” value is given as 99%.

Turning to “(cyclo 3-14) DOTA-Cpa-D-Cys-Tyr-D-4Aph(Cbm)-Lys-Thr-Cys-2Nal-NH2”, for the setting “conjugation step”, the “final purity (method not given)” value was found to be 94% pure.

As to “(cyclo 3-14) DOTA-pNO2-Phe-D-Cys-Tyr-D-4Aph(Cbm)-Lys-Thr-Cys-D-Tyr-NH2”, the “final purity (method not given)” value (conjugation step, run 1) is recorded as “about 98%” and the “final purity (method not given)” value (conjugation step, run 2) amounted to 99%. Moreover, the “final HPLC purity” value (conjugation step) came out at 99%.

Consider “H2N—Cpa-DCys-Aph(Cbm)-DTrp-Lys-Thr-Cys-NH2”, for which, under setting [2], the “final purity (method not given)” value was determined as 99% and the “final HPLC purity” value is on record as 99%.

Turning to “(cyclo 3-14) DOTA-Cpa-D-Cys-4Aph(Hor)-D-4Aph(Cbm)-Lys-Thr-Cys-D-Tyr-NH2”, the “final purity (method not given)” value (conjugation step) was “about 98%”.

As for “(cyclo 3-14) DOTA-pNO2-Phe-D-Cys-Tyr-D-4Aph(Cbm)-Lys-Thr-Cys-2Nal-NH2”, the “final purity (method not given)” value (conjugation step, run 1) was “about 98%” and the “final purity (method not given)” value (conjugation step, run 2) is recorded as 99%. For the same substance, under “conjugation step”, the “final HPLC purity” value came out at 99%.

With “DOTA-βAla-Cpa-DCys-Aph(Cbm)-DTrp-Lys-Thr-Cys-2Nal-NH2”, under setting [3], the “final purity (method not given)” value worked out at 98% and the “final HPLC purity” value was 99%.

In the case of “H2N—Cpa-DCys-Aph(Cbm)-DTrp-Lys-Thr-Cys-Aph(Cbm)-NH2”, under setting [2], the “final purity (method not given)” value is listed as 99% and the “final HPLC purity” value amounted to 99%.

Take “H2N—Cpa-DCys-Aph(Cbm)-DTrp-Lys-Thr-Cys-DAph(Cbm)-Gly-OH”: under setting [2], the “final purity (method not given)” value is listed as 98% and the “final HPLC purity” value worked out at 98%.

In the case of “(cyclo 3-14) DOTA-Cpa-D-Cys-4Aph(Hor)-D-4Aph(Cbm)-Lys-Thr-Cys-NH2”, the “final purity (method not given)” value (conjugation step) is on record as “about 98%”.

Consider “Ac-pNO2Phe-DCys-Tyr-DTrp-Lys-Thr-Cys-DTyr-NH2”, for which, under setting [2], the “final purity (method not given)” value came to 99% and the “final HPLC purity” value turned out to be 99%.

On to “Cbm-Cpa-DCys-Aph(Cbm)-DTrp-Lys-Thr-Cys-2Nal-NH2”, for which, under setting [4], the “final purity (method not given)” value was 98% and the “final HPLC purity” value is on record as 96%.

Consider “H2N—Cpa-DCys-Aph(Cbm)-DTrp-Lys-Thr-Cys-Aph(Hor)-NH2”, for which, under setting [2], the “final purity (method not given)” value is recorded as 99% and the “final HPLC purity” value stood at 99%.

With “(cyclo 3-14) DOTA-Cpa-D-Cys-4Aph(Cbm)-D-Trp-Lys-Thr-Cys-2Nal-NH2”, under “conjugation step”, the “final purity (method not given)” value is reported as “about 98% pure” and the “final HPLC purity” value is recorded as 99%.

Take “H2N—Cpa-DCys-Aph(Cbm)-5F-DTrp-Lys-Thr-Cys-2Nal-NH2”: under setting [2], the “final purity (method not given)” value is 96% and the “final HPLC purity” value was 96%.

On to “H2N—Cpa-DCys-Aph(Cbm)-DTrp-Lys-Thr-Cys-DAph(Cbm)-NH2”, for which, under setting [2], the “final purity (method not given)” value stood at 99% and the “final HPLC purity” value is 99%.

With “H2N—pNO2Phe-DCys-Tyr-DAph(Cbm)-Lys-Thr-Cys-2Nal-NH2”, under setting [2], the “final purity (method not given)” value came to 99% and the “final HPLC purity” value was 99%.

The record behind these values is patent US8691761B2 (priority 2006, dated 2014).
